Measured values reported in publication PMC6771250.

Target: T1, BCAP31, bait of the immune affinity purification for mass spectrometry (UniProt P51572)
T1 sequence: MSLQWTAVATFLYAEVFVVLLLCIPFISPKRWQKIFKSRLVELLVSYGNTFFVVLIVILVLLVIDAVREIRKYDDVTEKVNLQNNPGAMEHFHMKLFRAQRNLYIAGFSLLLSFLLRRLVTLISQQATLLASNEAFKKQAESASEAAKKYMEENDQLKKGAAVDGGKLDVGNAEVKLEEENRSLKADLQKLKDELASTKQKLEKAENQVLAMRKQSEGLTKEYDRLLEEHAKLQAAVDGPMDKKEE
Experiment: affinity purification with mass spectrometry; immune affinity purification of BCAP31; complex resolved on SDS-PAGE, silver stained, bands analysed by LC-MS/MS; search against Swiss-Prot (Homo sapiens), at least two unique peptides; cells not named

Substance	binding
EGFR found with BCAP31 by mass spectrometry (from UniProt P00533 25-1210) (receptor)	binds
RAB11 found with BCAP31 by mass spectrometry (human)	binds

Results are given in words; binding and its absence hold for the method and conditions named. In cells and extracts the contact can be indirect. These calls come from enrichment with a bait or labelling near it, and not all partners need be listed.
